Results: paper PMC5992723
These are yes or no findings as the source states them, for the method shown. Binding seen in cells or lysates may run through a third protein. Binding can be weak; no strength is given.

By UniProt entry, the sequences of proteins in these tests, tags left out. Where a name states a change or a piece, a line headed by the entry shows the natural chain unless it says otherwise.
UniProt P35613: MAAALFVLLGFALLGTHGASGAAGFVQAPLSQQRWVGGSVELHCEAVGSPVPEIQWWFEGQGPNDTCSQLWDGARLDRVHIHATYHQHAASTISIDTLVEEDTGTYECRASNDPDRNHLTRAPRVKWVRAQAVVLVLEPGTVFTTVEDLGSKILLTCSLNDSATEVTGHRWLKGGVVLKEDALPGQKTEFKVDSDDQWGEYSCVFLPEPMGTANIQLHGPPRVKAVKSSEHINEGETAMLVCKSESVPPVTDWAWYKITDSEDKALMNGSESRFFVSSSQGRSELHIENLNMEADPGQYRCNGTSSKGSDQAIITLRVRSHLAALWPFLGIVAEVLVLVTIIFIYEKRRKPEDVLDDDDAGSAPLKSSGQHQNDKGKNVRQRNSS
UniProt P05556: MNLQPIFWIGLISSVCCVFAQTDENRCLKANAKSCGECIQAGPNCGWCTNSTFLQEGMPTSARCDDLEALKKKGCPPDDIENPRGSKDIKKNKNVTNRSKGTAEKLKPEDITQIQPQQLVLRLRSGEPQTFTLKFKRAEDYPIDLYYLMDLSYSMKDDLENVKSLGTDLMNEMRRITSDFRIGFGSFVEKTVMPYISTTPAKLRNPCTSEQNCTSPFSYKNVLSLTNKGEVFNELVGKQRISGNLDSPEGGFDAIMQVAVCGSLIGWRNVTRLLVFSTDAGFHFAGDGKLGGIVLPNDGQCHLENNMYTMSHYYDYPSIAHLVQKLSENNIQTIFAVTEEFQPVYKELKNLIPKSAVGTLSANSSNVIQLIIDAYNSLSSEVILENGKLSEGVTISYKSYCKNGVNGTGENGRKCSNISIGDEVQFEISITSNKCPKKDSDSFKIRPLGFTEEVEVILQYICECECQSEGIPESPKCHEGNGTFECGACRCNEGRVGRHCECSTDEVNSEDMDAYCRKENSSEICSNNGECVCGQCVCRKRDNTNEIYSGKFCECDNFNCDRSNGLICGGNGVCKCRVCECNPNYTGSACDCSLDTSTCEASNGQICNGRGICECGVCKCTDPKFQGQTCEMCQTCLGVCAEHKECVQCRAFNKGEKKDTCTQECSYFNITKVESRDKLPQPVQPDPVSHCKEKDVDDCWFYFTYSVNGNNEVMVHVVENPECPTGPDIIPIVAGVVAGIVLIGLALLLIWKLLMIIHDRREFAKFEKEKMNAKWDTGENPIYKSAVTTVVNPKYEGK

What was measured:
[1] = molecular target: CD147 (human (endogenous in Hep-2)) (UniProt P35613); test: co-IP; Hep-2 cell lysates incubated with anti-integrin β1 or anti-CD147 antibody overnight at 4 °C, protein A/G agarose beads 4 h at 4 °C, washed three times, western blot; endogenous proteins
[2] = molecular target: integrin β1 (human (endogenous in Hep-2)) (UniProt P05556); test: as above

Substance	binding [1]	binding [2]
integrin β1 (from UniProt P05556 21-798) (receptor)	binds	–
CD147 (from UniProt P35613-2)	–	binds
